# Measured data: PubChem BioAssay AID1259308 (NCATS, 2017)
# Assay: 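Knock-downs that increase output of a recombinant reporter protein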 (primary screen)
# Cells: human HEK293 embryonic kidney cells stably expressing firefly luciferase (HEK-CMV-Luc2-Hygro)
# Reagent: single siRNA against human genes, 0.8 pmol siRNA per well
# Duration: 72 h
# Detection: 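Reporter luminescence and viable-cell signal on separate replicate plates, given as percent of non-targeting control and median/MAD z-scores, plus per-cell luciferase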
# Direction: total luciferase, z-score and total luciferase, % of control: higher = more reporter protein produced; luciferase per cell, z-score: higher = more reporter output per viable cell; viable cells, % of control: higher = more viable cells
# Hit rule: 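An siRNA counts as active if its total luciferase robust z-score exceeds 3; genes with two or more such siRNAs out of three were retested with fresh siRNAs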
# Meaning of the calls: active = raised luciferase; inactive = no rise
# The deposit covers about 59,000 reagents; shown is a part drawn at random. Over the whole deposit, about 1,510 (2.6%) are marked active. 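Calls use total luciferase alone and ignore viability, so some active siRNAs may act by altering cell number.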 A number with no mark means an inactive call. The numbers tell different reagents against one gene apart.
Target gene,reagent,"total luciferase, z-score","total luciferase, % of control","luciferase per cell, z-score","viable cells, % of control"
ZNF37A,1,1.52,112,2.62,62.8
ZNF37A,2,-0.416,73.6,-0.626,97
ZNF37A,3,-1.17,58.7,-0.483,74.5
GLT6D1,1,-1.66,48.9,-1.37,78.4
GLT6D1,2,-2.15,39.1,-1.06,57.8
GLT6D1,3,-0.397,74,-0.56,95.8
EMX1,1,3.02 (active),142,2.4,84.3
EMX1,2,0.298,87.8,0.491,86.2
EMX1,3,0.986,101,0.687,94.6
BOD1,1,-0.726,67.4,-0.796,92.9
BOD1,2,1.29,108,1.42,82.8
BOD1,3,-0.904,63.9,-0.635,84.4
H2AZ2,1,2.62,134,2.45,78.5
H2AZ2,2,0.714,96.1,0.401,96.6
H2AZ2,3,1.48,111,0.653,105
OPRPN,1,3.26 (active),147,2.13,93.5
OPRPN,2,-1.79,46.4,-1.02,67.7
OPRPN,3,-1.08,60.5,0.789,54.9
ACY3,1,-1.31,55.8,-0.355,68.5
ACY3,2,-2.35,35.1,-2.44,74.5
ACY3,3,0.0843,83.6,-0.353,102
DGAT2L7P,1,0.058,83,0.0312,92
DGAT2L7P,2,-0.159,78.7,-0.484,99.9
DGAT2L7P,3,-1.64,49.2,-1.65,84.9
ATP8B4,1,1.2,106,0.719,97.8
ATP8B4,2,-0.465,72.6,-0.755,99
ATP8B4,3,2.47,131,1.39,102
TRIM8,1,2.9,140,1.8,97.1
TRIM8,2,0.314,88.1,1.5,66.4
TRIM8,3,0.899,99.8,1,85.7
ZNF652,1,-0.273,76.5,-0.423,95.5
ZNF652,2,-0.271,76.5,-0.467,96.7
ZNF652,3,0.161,85.1,0.0987,92.6

Next part, starting with the last 7 of the part before.
Target gene,reagent,"total luciferase, z-score","total luciferase, % of control","luciferase per cell, z-score","viable cells, % of control"
ATP8B4,3,2.47,131,1.39,102
TRIM8,1,2.9,140,1.8,97.1
TRIM8,2,0.314,88.1,1.5,66.4
TRIM8,3,0.899,99.8,1,85.7
ZNF652,1,-0.273,76.5,-0.423,95.5
ZNF652,2,-0.271,76.5,-0.467,96.7
ZNF652,3,0.161,85.1,0.0987,92.6
RIC1,1,1.98,121,1.04,103
RIC1,2,0.61,94,0.408,94.4
RIC1,3,2.04,122,1.99,81.1
TCF7L2,1,-0.963,62.7,-0.681,83.9
TCF7L2,2,-0.566,70.6,-1.19,108
TCF7L2,3,0.0309,82.5,0.128,89.1
KLHL30,1,-1.74,47.3,-1.71,83
KLHL30,2,-0.112,79.7,0.129,86
KLHL30,3,0.634,94.5,-0.0898,108
ADCY7,1,2.27,127,1.89,86.2
ADCY7,2,-1.54,51.2,-1.48,84.3
ADCY7,3,-0.361,74.7,-0.422,93.3
ACER2,1,2.5,132,2.26,81.2
ACER2,2,-0.7,68,-0.565,88.1
ACER2,3,-0.626,69.4,-0.469,87.8
EPHA4,1,0.337,88.6,1.18,72.5
EPHA4,2,0.283,87.5,0.808,79.1
EPHA4,3,-1.15,59,-1.39,95.2
SPIRE1,1,3.23 (active),146,2.74,79.5
SPIRE1,2,0.164,85.1,0.19,90.5
SPIRE1,3,0.162,85.1,1.81,59.1
PRKY,1,-0.699,68,-0.552,87.9
PRKY,2,-0.738,67.2,-1.37,108
PRKY,3,1.13,104,0.523,102
MPP4,1,-0.385,74.2,-0.592,96.9
MPP4,2,0.231,86.5,0.0386,95.7
MPP4,3,0.105,84,-0.0708,95.6
MBTD1,1,2.31,128,1.69,91.5
MBTD1,2,-0.0623,80.6,0.146,86.7
MBTD1,3,0.447,90.8,0.463,89.8
PRSS16,1,-0.738,67.2,-0.836,93.6
PRSS16,2,1.05,103,-0.162,120
PRSS16,3,-0.259,76.7,-0.644,102
FSHB,1,-0.462,72.7,-0.614,95.5
FSHB,2,-0.684,68.3,0.862,60.8
FSHB,3,-0.799,66,-0.696,88.6
NEDD8,1,-0.606,69.8,0.107,75.9
NEDD8,2,-0.575,70.5,0.281,73.1
NEDD8,3,0.263,87.1,0.566,83.9
HSDL2,1,-0.695,68.1,-1.07,101
HSDL2,2,0.967,101,0.0845,111
HSDL2,3,-0.991,62.2,-0.756,84.8
